The structures appear in SMILES notation. Values joined by “and” are separate entries in the source; they are usually repeats but may differ in a detail not shown here. Equal values may be shown once. This is one part of the list. Further columns of the screen follow, without active or inactive calls. Compounds called inactive in the main read-out are mostly missing here. Words in brackets tell the shape of the fitted curve; partial curves, single points and poor fits give uncertain potencies.

The assay is described as follows: Cell signaling CRE-BLA (Fsk stim). Particulars: CHO CRE-bla reporter (cAMP response element driving beta-lactamase), forskolin EC10, beta-lactamase ratio; measured here: 460 nm blue channel. The gist of the method:
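Reporter-gene assay: CHO cells with beta-lactamase behind cAMP responsive elements, co-treated with compound and EC10 NKH 477 for 3 hours at 37 degrees Celsius. Activity came from the 460/530 nm CCF4 emission ratio.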
The AC50 is the concentration giving half of the maximal activity seen. Take `O=C(c1cc2c(s1)CCC2)N1C(=O)c2ccccc2S1(=O)=O`: the AC50 was 3.16 µM [falling, single point]. To `O=c1c(-c2ccc(Cl)cc2)nc2cnc(N3CCOCC3)nc2n1-c1ccccc1` belongs 0.398 µM [rising, full curve]; to `O=CCCCC=O`, 25.1 µM [rising, partial curve]. To `COc1cc(NC(=O)c2c(-c3ccccc3Cl)noc2C)c2ncccc2c1` belongs 2.51 µM [rising, full curve]; to `CCOc1ccc(NCC2CCOC(C)(C)C2)cc1` (centres undefined), 3.98 µM [rising, full curve]; to `O=C(CSc1n[nH]c(-c2ccncc2)n1)Nc1ccccn1`, 5.01 µM [rising, single point]. To `Cn1c(C(=O)NC2CCCCC2)cc2c(=O)n(C)c3ccccc3c21` belongs 3.16 µM [rising, full curve, poor fit]; to `O=C(Nc1ccc2c(c1)nc1n2CCCCC1)c1cc(S(=O)(=O)N2CCOCC2)ccc1Cl`, 3.16 µM [rising, single point]. `Cc1cc(C)n(CC(O)CN2c3ccccc3Sc3ccccc32)n1` (centres undefined): the half-maximal activity concentration (AC50) is 25.1 µM [falling, single point]. To `O=C(Nc1cccc(C(F)(F)F)c1)C1CCCN(S(=O)(=O)c2cnc[nH]2)C1` (centres undefined) belongs 0.126 µM [falling, full curve, poor fit]; to `COc1ccccc1CNc1nc(-c2ccc(N(C)C)cc2)nc2ccccc12`, 5.01 µM [rising, partial curve]. To `CCc1cc(C(=O)c2ccccc2OC)c(N)s1` belongs 1.26 µM [falling, partial curve, poor fit]; to `Cc1nc(C)c(-c2csc(NCc3ccco3)n2)s1`, 12.6 µM [rising, single point]; to `COc1ccc(C2=NOC(C(=O)NCCN3CCOCC3)C2)cc1` (centres undefined), 5.01 µM [falling, single point]. Turning to `Cc1nc(SCC#N)c2c3c(sc2n1)CCC3`, the half-maximal activity concentration (AC50) was 1.26 µM [rising, partial curve]. With `O=C(O)CCc1nc2cccnc2n1Cc1ccccc1`, the half-maximal activity concentration (AC50) was 12.6 µM [rising, single point]. To `CCOC(=O)C(C)Oc1cccc2c(=O)n(CC(=O)Nc3ccc4c(c3)OCCO4)ccc12` (centres undefined) belongs 10 µM [rising, partial curve]; to `Fc1ccc(CSc2ncnc3nc[nH]c23)cc1`, 12.6 µM [rising, partial curve]. For `CC(C)(C)c1cc(=O)n2c(C#N)c(C#N)nc2[nH]1`, the concentration at half-maximal activity (AC50) was 0.631 µM [rising, single point]. Take `COc1ccc(-c2cn3ccccc3n2)cc1OC`: the AC50 is 12.6 µM [rising, single point]. On to `Cc1cc(C(=O)Nc2c(C)n(C)n(-c3ccccc3)c2=O)cs1`, for which the half-maximal activity concentration (AC50) is 5.01 µM [falling, full curve]. To `COc1ccc2c(c1)N(C)C(=O)CC(c1ccccc1)=N2` belongs 25.1 µM [falling, single point]; to `CCc1nnc(SCc2ccc(OC)c(Br)c2)n1N`, 0.0631 µM [rising, single point]. To `Cc1cc(C)cc(N2C(=O)C3CC=CCC3C2=O)c1` (centres undefined) belongs 12.6 µM [rising, single point]. To `COc1ncnc2sc(-c3ccccc3)cc12` belongs 12.6 µM [rising, single point]; to `CCN1CCN(C(=O)c2cc3cc4cc(OC)ccc4nc3s2)CC1`, 10 µM [rising, single point]. For the molecule `COc1cc(-c2nnc(SCc3c(F)cccc3Cl)o2)cc(OC)c1OC`, the AC50 was 3.98 µM [rising, partial curve]. To `CCC(Sc1nc2n[nH]c(C)c2c(=N)n1-c1cccc(Cl)c1C)C(=O)N(CC)CC` (centres undefined) belongs 1 µM [rising, full curve, poor fit].

With `CCCCn1c(SCC(N)=O)nnc1-c1cc(OC)c(OC)c(OC)c1`, the AC50 was 6.31 µM [rising, partial curve]. On to `CC1CCCCC1NC(=O)COc1ccc(-n2cnnn2)cc1` (centres undefined), for which the concentration at half-maximal activity (AC50) was 0.00398 µM [falling, full curve]. `CC(C)Nc1ncnc2c1cnn2-c1ccc(Cl)cc1`: the AC50 is 2 µM [rising, full curve].

On to `COCCN1C(=O)C(O)=C(C(=O)c2ccco2)C1c1cccc(Oc2ccccc2)c1` (centres undefined), for which the concentration at half-maximal activity (AC50) was 0.794 µM [rising, single point]. To `CN(C)S(=O)(=O)c1ccc(C(=O)Nc2nc(-c3cccs3)cs2)cc1` belongs 12.6 µM [rising, single point]; to `CCCn1c(SCc2ccccc2)nc2c1c(=O)[nH]c(=O)n2C`, 12.6 µM [rising, single point]; to `Cn1c(-c2ccc(Cl)cc2)cnc1N`, 0.631 µM [falling, partial curve].

Consider `CCOC(=O)c1cnc(SC2CC(=O)N(c3ccc(OC)c(OC)c3)C2=O)nc1N` (centres undefined), for which the half-maximal activity concentration (AC50) was 15.8 µM [rising, single point]. To `COc1ccc2[nH]c(=O)c(CN(CCc3ccccc3)Cc3nnnn3CC3CCCO3)cc2c1` (centres undefined) belongs 15.8 µM [rising, single point]; to `COc1cccc(-c2cncnc2NCCc2c[nH]c3ccc(OC)cc23)c1`, 0.2 µM [rising, partial curve]. To `O=C(Nc1cc(=O)c2ccccc2o1)N1CCOCC1` belongs 3.16 µM [rising, partial curve]. For the molecule `Nc1nc(N)c2nc(-c3ccccc3)c(N)nc2n1`, the half-maximal activity concentration (AC50) was 31.6 µM [rising, single point] and 10 µM [rising, partial curve] and 15.8 µM [rising, partial curve].

As for `CC1=C(C(=O)OCc2ccccc2)C(c2ccccc2)NC(=O)N1CCCCCC(=O)O` (centres undefined), the half-maximal activity concentration (AC50) was 0.0316 µM [rising, single point]. To `CC1CCCCN1CCNC(=O)Cn1nc(-c2ccccc2)ccc1=O` (centres undefined) belongs 3.16 µM [rising, partial curve, poor fit]. Consider `C=C(C)CSc1nc(N)cc(=O)[nH]1`, for which the AC50 is 15.8 µM [falling, partial curve]. To `CCCc1c(OCCCOc2ccc(OCC(=O)O)cc2)ccc(CC=O)c1O` belongs 0.1 µM [rising, full curve]; to `O=C(OCc1csc(-c2ccccc2)n1)c1cccs1`, 3.98 µM [falling, single point]; to `COc1ccc(Cl)cc1NC(=O)Cn1c(=O)n2nc(C)nc2c2ccccc21`, 3.98 µM [rising, single point]. To `CCCCOC(=O)CNc1nnc(SCC(=O)OCC)[nH]c1=O` belongs 25.1 µM [falling, single point].

Turning to `O=C1c2ccccc2S(=O)(=O)N1Cc1nc2ccccc2s1`, the AC50 is 0.00398 µM [falling, full curve, poor fit]. In the case of `CCCCCCn1c(N(CC)CC)nc2c1c(=O)[nH]c(=O)n2C`, the half-maximal activity concentration (AC50) was 10 µM [rising, partial curve]. On to `CCOC(=O)CCc1c(C)c2ccc(O)cc2oc1=O`, for which the concentration at half-maximal activity (AC50) was 25.1 µM [rising, single point].

In the case of `Cc1cc(Nc2ccc3c(c2)OCCO3)n2nc(C)nc2n1`, the AC50 is 6.31 µM [rising, partial curve]. To `CC(C)C[C@@H](CC(=O)N[C@H](CC(=O)N[C@@H]1CCCC[C@H]1C(=O)N[C@H](CC(=O)N[C@@H](CCC(=O)O)CC(=O)O)Cc1ccccc1)C(C)C)NC(=O)[C@@H]1CCCC[C@H]1N` belongs 7.94 µM [falling, full curve, poor fit]; to `CCOC(=O)c1sc(NC(=O)CSc2nnnn2-c2ccccc2)nc1C`, 3.98 µM [rising, partial curve, poor fit]. To `Cc1cc(NC(=O)c2ccc(NC(=O)c3cccs3)cc2)no1` belongs 0.631 µM [rising, full curve, poor fit]; to `COc1cccc(Cn2c(=O)c(-c3cc(F)cc(F)c3)nc3cnc(N4CCNCC4)nc32)c1`, 1 µM [rising, full curve]. To `c1ccc(Nc2nc(-c3ccc4c(c3)OCO4)nc3ccccc23)cc1` belongs 3.16 µM [rising, partial curve]; to `COc1ccc(-n2c(Cc3cccn3C)nnc2SCC(=O)Nc2ccc(F)cc2)cc1`, 6.31 µM [falling, partial curve]; to `Cc1ccc2c(c1)nnn2C1CCN(CC(=O)Nc2ccccc2N2CCOCC2)CC1`, 10 µM [rising, partial curve].

As for `Cc1cccc(-n2nnnc2SCC(=O)c2cc(C)n(Cc3ccco3)c2C)c1`, the concentration at half-maximal activity (AC50) was 0.0398 µM [falling, partial curve, poor fit].

Consider `Cn1nnnc1SCc1c(F)cccc1F`, for which the AC50 was 5.01 µM [falling, partial curve]. To `O=C(OC1CCOC1=O)c1ccc2ccccc2n1` (centres undefined) belongs 3.98 µM [falling, partial curve]. As for `COc1cc(-c2nnc(SCC(=O)Nc3cc(C)on3)n2C)cc(OC)c1O`, the concentration at half-maximal activity (AC50) is 3.98 µM [falling, single point].

For `CCOC(=O)COc1ccc2c(c1)C(=O)CC(C)(c1cccnc1)O2` (centres undefined), the AC50 was 25.1 µM [rising, single point]. To `Cn1c(=O)c(-c2cc(F)cc(F)c2)nc2cnc(N3CCOCC3)nc21` belongs 2 µM [rising, partial curve]; to `CCOC(=O)c1cc2cc(C)ccc2[nH]1`, 3.98 µM [falling, full curve]. `CC(C)C(=O)c1c(C(C)C)nn2ccccc12`: the AC50 is 12.6 µM [rising, partial curve]. To `O=C(c1coc(=O)c2ccccc12)N1CCN(Cc2ccccc2)CC1` belongs 25.1 µM [rising, single point]; to `CCNCCNC(=O)c1c(O)c2ccccc2n(CC)c1=O`, 3.16 µM [rising, single point]; to `Cc1occc1C(=O)Nc1cc(=O)n(C)c(=O)n1C`, 0.00316 µM [falling, full curve, poor fit].

For the origin of these results see PubChem BioAssay AID662 (National Center for Advancing Translational Sciences (NCATS), 2007).
